PubChem BioAssay AID652259 – Drosophila RNAi Screening Center – 2013
The screen tested about 22,000 reagents; shown is an unselected part of those that have a named target and a result. In the full data, 233 (1.1%) were called active. 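Light values are raw, unnormalised plate reads; the ratio scores behind the reporter calls were not deposited.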 Names joined by + are all predicted targets of the reagent. Reagent sequences are not shown. Not stated in the record: the amount of reagent, the time to read-out, the dose of the treatment.

- Test: 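Genome-wide hunt for genes that control Wingless pathway activity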 (primary screen)
- Cell system: Drosophila clone 8 imaginal disc epithelial cells
- Reagent: long dsRNA against Drosophila genes
- Conditions: pathway stimulated by co-transfected Wingless expression plasmid
- Measured: 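Firefly luciferase from a tcf-site Wingless reporter, measured alongside co-transfected Renilla luciferase that tracks transfection; pathway stimulated by a Wingless plasmid; the firefly-to-Renilla ratio is not deposited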
- Scale: firefly reporter light: higher = more Wg reporter light, before normalisation; Renilla control light: higher = more transfected or surviving cells
- Active means: 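a knock-down is a candidate when at least two out of four statistical tests show it departing from its plate mean; one test alone signals a weak candidate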
- Calls: active = candidate regulator (raises or lowers reporter); inactive = not a candidate

With CG31793 [DRSC02605], what was measured?
firefly reporter light, replicate 1: 1857; firefly reporter light, replicate 2: 3399; Renilla control light, replicate 1: 256; Renilla control light, replicate 2: 1747; activity call: inactive

With sotv + CG10731 [DRSC05930], what does the deposit list?
firefly reporter light, replicate 1: 6435; Renilla control light, replicate 1: 2374; activity call: inactive

What is on record for sotv + CG10731 [DRSC05997]?
firefly reporter light, replicate 1: 3157; Renilla control light, replicate 1: 1681; activity call: inactive

What did the screen give for Orc2 [DRSC16776]?
firefly reporter light, replicate 1: 6549; Renilla control light, replicate 1: 1974; activity call: inactive

With CG16790 [DRSC15156], what was measured?
firefly reporter light, replicate 1: 16305; Renilla control light, replicate 1: 2725; activity call: inactive

With l(1)G0196 [DRSC20629], how do the results read?
firefly reporter light, replicate 1: 25729; Renilla control light, replicate 1: 1179; activity call: inactive

How did the screen score CG6700 [DRSC02980]?
firefly reporter light, replicate 1: 11988; Renilla control light, replicate 1: 3072; activity call: inactive

With CG17196 [DRSC15189], how do the results read?
firefly reporter light, replicate 1: 25776; Renilla control light, replicate 1: 19900; activity call: inactive

What is on record for CG43193 (retired record) [DRSC20426]?
firefly reporter light, replicate 1: 3213; Renilla control light, replicate 1: 1993; activity call: inactive

For CG2865 [DRSC18527], what does the deposit list?
firefly reporter light, replicate 1: 2485; firefly reporter light, replicate 2: 5744; Renilla control light, replicate 1: 1344; Renilla control light, replicate 2: 3281; activity call: inactive

How did the screen score CG2865 [DRSC18528]?
reporter change call, replicate 1: Wg reporter activity raised; firefly reporter light, replicate 1: 5056; Renilla control light, replicate 1: 466; activity call: active

With CG7342 [DRSC16230], what was measured?
firefly reporter light, replicate 1: 2400; firefly reporter light, replicate 2: 7280; Renilla control light, replicate 1: 1125; Renilla control light, replicate 2: 2185; activity call: inactive

How did the screen score l(3)73Ah [DRSC11359]?
firefly reporter light, replicate 1: 6890; Renilla control light, replicate 1: 2445; activity call: inactive

What did the screen give for CG34012 [DRSC09089]?
firefly reporter light, replicate 1: 2660; Renilla control light, replicate 1: 2013; activity call: inactive

With WRNexo [DRSC16278], what does the deposit list?
firefly reporter light, replicate 1: 4786; firefly reporter light, replicate 2: 6370; Renilla control light, replicate 1: 1591; Renilla control light, replicate 2: 2859; activity call: inactive

What is on record for CG13031 [DRSC09911]?
firefly reporter light, replicate 1: 6692; Renilla control light, replicate 1: 2939; activity call: inactive

How did the screen score Acsx4 [DRSC14311]?
firefly reporter light, replicate 1: 13296; Renilla control light, replicate 1: 3517; activity call: inactive

For Spt5 [DRSC07556], what does the deposit list?
firefly reporter light, replicate 1: 5803; Renilla control light, replicate 1: 1792; activity call: inactive

What is on record for Jheh3 [DRSC06533]?
firefly reporter light, replicate 1: 8713; Renilla control light, replicate 1: 3834; activity call: inactive

For CG33170 [DRSC11854], what does the deposit list?
firefly reporter light, replicate 1: 17216; Renilla control light, replicate 1: 5568; activity call: inactive

With CG33170 [DRSC22366], what was measured?
firefly reporter light, replicate 1: 5.50e5; firefly reporter light, replicate 2: 6.08e5; Renilla control light, replicate 1: 2.34e5; Renilla control light, replicate 2: 2.24e5; activity call: inactive

What did the screen give for CG5543 [DRSC04511]?
firefly reporter light, replicate 1: 8657; Renilla control light, replicate 1: 3204; activity call: inactive

What is on record for Hmx [DRSC15307]?
firefly reporter light, replicate 1: 12696; Renilla control light, replicate 1: 4848; activity call: inactive

For Hmx [DRSC15884], what was measured?
firefly reporter light, replicate 1: 25563; Renilla control light, replicate 1: 8032; activity call: inactive

For Hmx [DRSC16706], how do the results read?
firefly reporter light, replicate 1: 20848; Renilla control light, replicate 1: 4153; activity call: inactive

Which result is listed for Hmx [DRSC22799]?
firefly reporter light, replicate 1: 9.94e5; firefly reporter light, replicate 2: 1.02e6; Renilla control light, replicate 1: 1.73e5; Renilla control light, replicate 2: 2.95e5; activity call: inactive

With CG9877 [DRSC04587], what was measured?
firefly reporter light, replicate 1: 3516; firefly reporter light, replicate 2: 9097; Renilla control light, replicate 1: 998; Renilla control light, replicate 2: 3248; activity call: inactive

Which result is listed for CG5435 [DRSC02860]?
firefly reporter light, replicate 1: 2915; firefly reporter light, replicate 2: 7280; Renilla control light, replicate 1: 1196; Renilla control light, replicate 2: 2934; activity call: inactive

With CG9826 [DRSC04570], what does the deposit list?
firefly reporter light, replicate 1: 4631; firefly reporter light, replicate 2: 5609; Renilla control light, replicate 1: 1269; Renilla control light, replicate 2: 2747; activity call: inactive

What is on record for CG15546 [DRSC15084]?
firefly reporter light, replicate 1: 8980; Renilla control light, replicate 1: 3620; activity call: inactive

For CG15546 [DRSC22831], what was measured?
firefly reporter light, replicate 1: 4.59e5; firefly reporter light, replicate 2: 4.77e5; Renilla control light, replicate 1: 1.90e5; Renilla control light, replicate 2: 2.19e5; activity call: inactive

How did the screen score NitFhit [DRSC08680]?
firefly reporter light, replicate 1: 6001; Renilla control light, replicate 1: 2592; activity call: inactive

Only “Renilla control light, replicate 1”, for 2 of the entries above:
CG15546 [DRSC15084]	3620
CG15546 [DRSC22831]	1.90e5
